# The exact form of at least one protein or probe is not confirmed. Results from cells or extracts need not show a direct contact. For some of these results: No signal at the amounts used counts as a negative. For some of these results: At least one verdict rests on a figure or table, not on a statement of the authors. For some of these results: Tags and fusion partners may be left off the protein sequences shown.
# How the values were obtained:
# histone H4 [1] = target: histone H4 (UniProt P62803); test: competition with a labelled probe; details: 50x mutant competitor had little effect on complex; LightShift Chemiluminescent EMSA kit: 200 fmol biotin probe, 10 ug nuclear extract, 1x binding buffer, poly dI-dC, glycerol, 20 uL; 6% native gel; protein in an extract
# histone H4 [2] = target: histone H4 (UniProt P62803); test: EMSA supershift; details: anti-histone H4 supershift, 50x unlabeled probe abolishes band; LightShift Chemiluminescent EMSA kit: 200 fmol biotin probe, 10 ug nuclear extract, 1x binding buffer, poly dI-dC, glycerol, 20 uL; 6% native gel; protein in an extract; label: 5'-biotin (unlabeled as competitor)
# E2F2 [3] = target: T1, E2F2 (UniProt E1BD75); test: competition with a labelled probe; details: 50x mutant competitor, results stated similar to histone H4; LightShift Chemiluminescent EMSA kit: 200 fmol biotin probe, 10 ug nuclear extract, 1x binding buffer, poly dI-dC, glycerol, 20 uL; 6% native gel; protein in an extract
# T1 sequence (looked up, limits assumed): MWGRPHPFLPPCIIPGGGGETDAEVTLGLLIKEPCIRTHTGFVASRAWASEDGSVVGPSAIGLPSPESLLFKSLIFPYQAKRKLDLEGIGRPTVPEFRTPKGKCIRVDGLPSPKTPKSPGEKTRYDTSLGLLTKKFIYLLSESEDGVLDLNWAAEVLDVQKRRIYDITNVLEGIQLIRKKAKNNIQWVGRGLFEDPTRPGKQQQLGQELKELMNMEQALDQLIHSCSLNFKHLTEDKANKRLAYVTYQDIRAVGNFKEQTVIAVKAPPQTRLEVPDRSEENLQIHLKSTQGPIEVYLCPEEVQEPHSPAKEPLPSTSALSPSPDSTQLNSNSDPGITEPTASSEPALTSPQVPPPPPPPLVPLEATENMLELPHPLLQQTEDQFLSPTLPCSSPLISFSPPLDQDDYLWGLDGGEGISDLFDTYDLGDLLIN
# E2F2 [4] = target: T1, E2F2; test: EMSA supershift; details: anti-E2F2 supershift, 50x unlabeled probe competes; LightShift Chemiluminescent EMSA kit: 200 fmol biotin probe, 10 ug nuclear extract, 1x binding buffer, poly dI-dC, glycerol, 20 uL; 6% native gel; protein in an extract; label: 5'-biotin (unlabeled as competitor)
sequence,measurement,setting,value
CCCGGATAGGCGCCGAAAACAGCCAATCAGCGCG / CGCGCTGATTGGCTGCTTTTGGCGCCTATCCGGG [mHistone H4 probe],binding result,histone H4 [1],no binding
CCCGGATAGGCGCCGCCCGCAGCCAATCAGCGCG (double strand) [histone H4 probe (SIX1 promoter)],binding result,histone H4 [2],binds
CCGCAGCCAATCAGCGAAAAGAGAACGCTGCGCG (double strand) [mE2F2 probe],binding result,E2F2 [3],no binding
CCGCAGCCAATCAGCGCGCCGAGAACGCTGCGCG (double strand) [E2F2 probe (SIX1 promoter)],binding result,E2F2 [4],binds
